# Measured data: PubChem BioAssay AID1159584 (Peter MacCallum Cancer Centre, 2016)
# Purpose: 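Genes that CDH1-null MCF10A cells selectively depend on to survive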 (primary screen)
# Cells: human MCF10A breast epithelial cells, parental and CDH1-null
# Reagent: siRNA against human genes
# Detection: 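Cell viability by CellTiter-Glo ATP luminescence, each line scaled to the mean of mock wells across plates, then CDH1-null over parental ratio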
# Scale: CDH1-null / parental viability ratio: higher = CDH1-null cells survive relatively better than parental
# In all, the deposit lists about 18,000 reagents; this is a part drawn at random. Not all columns of the deposit are shown. Not given: the amount of reagent, the time to read-out.
gene symbol,CDH1-null / parental viability ratio
ITGA8,0.96
POLR1D,1.42
WDR7,1.14
ADAMTS12,0.97
MT1G,1.16
ACAD11,1.17
RPL34,1.44
PIP5K1C,0.87
SDR42E1,0.92
SLC11A2,1.18
HSPB9,1.04
STAM,1.02
LIFR,0.9
OR5P3,1.26
ZNF575,1.15
CELF1,1.23
C9orf43,0.8
OR2W5,0.98
GHRHR,0.94
ERMARD,1
AKT3,1.06
LYZ,0.95
ANXA4,1.59
PRR27,1.3
APOBEC3G,0.8
TMTC2,1
CSH2,1.17
RO60,1.3
DUSP19,1.34
LST1,0.95
ST7,1.38
MSLNL,1.14
ZNF678,1.07
FAM133B,0.98
RRP15,0.85
IQGAP3,1.27
EFEMP2,0.98
RBFOX2,1.17
MTA2,0.94
LRRC37A3,1.03
WIPF3,1.01
ABHD18,1.04
FCHO2,0.82
NCAPH,0.77
COL1A2,1.33
EPS8L1,1
CTNND2,1.12
AKR1C2,0.91
MTERF3,0.81
ITIH4,0.89
RRP8,1.03
SVOP,0.83
PARP1,0.93
RETREG3,1.08
POLR3K,1.39
MTOR,1.27
NINJ2,1.17
PTGR2,0.62
FNIP1,1.07
ALDH1A1,0.98
NCOA5,0.94
PLXNA3,1.07
RGS1,1.54
PHIP,1.08
MCEMP1,0.85
DHRS2,1.02
TUBB2B,1.05
OR52N2,0.91
